This note sets out measurements from PubChem BioAssay AID434947 (Broad Institute, 2010).

In general, EC50 refers to the concentration giving half of the maximal effect.

SMILES strings stand for the structures. The whole screen tested about 2,200 compounds, of which about 15 (0.7%) were called active.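 Rule for the calls: active = fitted half-maximal concentration for loss of luminescence signal no more than a set limit of log units above the top tested concentration; inconclusive = flat fit with 30 to 70% signal loss, or invalid fit; inactive = half-maximal concentration above that set limit.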 This is one part of the list. A value given as a limit tells only on which side of the number the result lay.

The assay can be described thus: inhibitors of ADP-Glo detection reagents, dose response, artefact control for GSK3beta inhibitor project, biochemical, luminescence, cell-free, homogeneous (AID 434947).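 Note: kinase-free counter screen of ADP-Glo detection reagents for GSK3beta hits.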 Particulars: 5 uM ADP. A general note: In ADP-Glo the light output rises with the ADP produced.
For the molecule `Cc1ccc(C(=O)O/N=C\c2ccc(N3CCCCC3)c([N+](=O)[O-])c2)cc1`, the EC50 was inactive: > 30 µM. In the case of `O=C1CCCC2=C1C(c1cccs1)Nc1ccccc1N2` (stereo not drawn), the EC50 is inactive: > 30 µM. For `COc1ccc2occ(C(C)=O)c2c1`, the EC50 was inactive: > 30 µM. Under `Cn1c(=O)c2[nH]c(CCCC(=O)O)nc2n(Cc2ccccc2)c1=S` stands inactive: > 30 µM. As to `c1ccc2c(c1)OCC(CNCC1COc3ccccc3O1)O2` (stereo not drawn), the EC50 is inactive: > 30 µM. For the molecule `Cc1ccsc1/C=N/Nc1ncnc2nc[nH]c12`, the EC50 was inactive: > 30 µM. Regarding `CCOC(=O)CCCSc1nnc(CCCCCN2C(=O)c3cccc4cccc(c34)C2=O)o1`, the EC50 was inactive: > 30 µM. Regarding `Nc1nc(NCCCN2CCOCC2)nc(Nc2ccc(F)cc2)c1[N+](=O)[O-]`, the EC50 is inactive: > 30 µM. Under `Nc1ncnc2c1ncn2[C@@H]1O[C@H](COP(=O)(O)O)[C@@H](O)[C@H]1O` stands inactive: > 30 µM; under `COCCn1c(SCC(=O)Nc2ncc(Cl)c(C)c2Cl)nc2ccccc21`, inactive: > 30 µM.

For the molecule `N#CCCn1cc(C(CC(=O)c2ccccc2)C(=O)O)c2ccccc21` (stereo not drawn), the EC50 was inactive: > 30 µM.

Consider `CCCCOc1ccc(/C=N/NC(=O)c2nnn(-c3nonc3N)c2CN2CCCCCC2)cc1`, for which the EC50 was inactive: > 30 µM. For the molecule `CCc1nnc(NC(=O)c2ccc3c(=O)n4c(nc3c2)CCCCC4)s1`, the EC50 was inactive: > 30 µM. Take `CCOC(=O)C1=C(C)Nc2ncnn2C1c1ccc2c(c1)OCO2` (stereo not drawn): the EC50 is inactive: > 30 µM. Consider `COC(=O)COc1ccc2occ(C(C)=O)c2c1`, for which the EC50 is inactive: > 30 µM. Regarding `CCCn1nc(NC(=O)c2cccs2)c2cc3ccc(C)cc3nc21`, the EC50 was inactive: > 30 µM. Turning to `O=C(COc1ccccc1[N+](=O)[O-])N/N=C/C=C/c1ccco1`, the EC50 was inactive: > 30 µM. Under `COc1ccc2occ(C(=O)c3ccccc3)c2c1` stands inactive: > 30 µM; under `Nc1nc(O)c(N=Nc2ccc(S(N)(=O)=O)cc2)c(=O)[nH]1`, inactive: > 30 µM; under `COc1cc(/C=C/c2nc3ccc([N+](=O)[O-])cc3s2)ccc1OCC(=O)O`, inactive: > 30 µM.

`N#CCCn1cc(/C=N/O)c(-c2cccc([N+](=O)[O-])c2)n1`: the EC50 is inactive: > 30 µM. On to `Clc1ccc(-c2nnc(-c3ccccc3)c(N3CCSCC3)n2)cc1`, for which the EC50 was inactive: > 30 µM. `COc1ccc(Nc2nc(NCC3CCCO3)nc(N)c2[N+](=O)[O-])cc1` (stereo not drawn): the EC50 is inactive: > 30 µM. In the case of `Clc1ccc(CSc2nnc(-c3ccncc3)o2)c(Cl)c1`, the EC50 is inactive: > 30 µM.

As for `O=C(CN1C(=O)CCC1=O)Nc1ccc2c3c(cccc13)CC2`, the EC50 is inactive: > 30 µM. Take `COc1cccc(C(=O)NCC(=O)N/N=C(C)\C=C\c2ccccc2)c1`: the EC50 is inactive: > 30 µM. For `CC1CCCC(C)N1C(=O)CN1C(=O)C(C)(C)Oc2ccc(C(=O)NC3CCCC3)cc21` (stereo not drawn) the value was inactive: > 30 µM. As for `CC(=O)Oc1ccc2occ(C(=O)c3ccccc3)c2c1`, the EC50 was inactive: > 30 µM. With `CN(C)Cc1c(C(=O)N/N=C/CCc2ccccc2)nnn1-c1nonc1N`, the EC50 was inactive: > 30 µM.

Turning to `Cc1ccc(/C=N/Nc2ncnc3nc[nH]c23)cc1`, the EC50 is inactive: > 30 µM. In the case of `CCCc1cc(=O)[nH]c2nnc(SCC(=O)Nc3nccs3)n12`, the EC50 is inactive: > 30 µM. On to `COc1cc(/C=C2\SC(=Nc3ccc(O)cc3)NC2=O)cc(OC)c1OC`, for which the EC50 was inactive: > 30 µM. Under `COc1ccc(C(=O)O/N=C(\N)c2ccccn2)cc1` stands active: 15.5 µM; under `Cc1cc(CNC(=O)c2cc(COc3c(F)cccc3F)on2)nn1C`, inactive: > 30 µM. Turning to `CCOC(=O)/C=C(/C)N1N=C(c2ccc(OC)cc2)CC1c1cccc([N+](=O)[O-])c1` (stereo not drawn), the EC50 is inactive: > 30 µM. With `Cc1ccc(S(=O)(=O)N(C)CC(=O)N2CCCc3ccccc32)cc1`, the EC50 was inactive: > 30 µM. As to `O=C(Nc1cccc(Cl)c1)Nc1ccnc(-c2cccnc2)n1`, the EC50 was inactive: > 30 µM.

On to `O=C(OCCN1CCOCC1)c1ccc(O)cc1`, for which the EC50 is inactive: > 30 µM. Under `CC(=O)c1sc(NC(=O)CCNC(=O)c2ccco2)nc1-c1ccccc1` stands inactive: > 30 µM. In the case of `CCn1nc(NC(=O)CC(C)C)c2cc3ccc(C)cc3nc21`, the EC50 was inactive: > 30 µM. Turning to `COc1cc2c(O)c3c(c(-c4ccc5c(c4)OCO5)c2cc1OC)C(=O)OC3`, the EC50 is inactive: > 30 µM.

Turning to `COc1cc(/C=N/NC(=O)COc2ccc([N+](=O)[O-])cc2)ccc1OCC(=O)N1CCOCC1`, the EC50 was inactive: > 30 µM. For `CCn1c(SCC(=O)Nc2ccc(Br)cn2)nnc1C1CC1`, the EC50 was inactive: > 30 µM.

Consider `COc1ccc(CNCC2COc3ccccc3O2)cc1` (stereo not drawn), for which the EC50 was inactive: > 30 µM. As to `COc1ccc(-c2nnc3ccc(SCc4ccccc4)nn23)cc1`, the EC50 is inactive: > 30 µM. Under `COc1cc(/C=N/NC(=O)c2ccc3ccccc3c2)ccc1Oc1ccc([N+](=O)[O-])cn1` stands inactive: > 30 µM; under `COCCCNc1nc(N)c([N+](=O)[O-])c(NCC2CCCO2)n1` (stereo not drawn), inactive: > 30 µM. In the case of `Cc1nc(Nc2ccc(S(N)(=O)=O)cc2)sc1C(=O)Nc1ccccc1`, the EC50 was inactive: > 30 µM.

As for `CN(c1ncnc(N)c1[N+](=O)[O-])C1CCCCC1`, the EC50 is inactive: > 30 µM. Consider `Cc1cc2oc(=O)cc(Cn3ccnc3)c2cc1O`, for which the EC50 was inactive: > 30 µM.

Take `COc1ccc(C(=O)c2ccsc2N)cc1`: the EC50 was inactive: > 30 µM. Under `COc1ccc(Nc2nc(N)nc(CSc3nnc(C)s3)n2)cc1` stands inactive: > 30 µM; under `COc1ccc(/C=C2\SC(=Nc3ccccc3)NC2=O)cc1`, inactive: > 30 µM; under `Cc1[nH]nc2c1C(c1ccc(N(C)C)cc1)C1=C(CC(C)(C)CC1=O)N2` (stereo not drawn), inactive: > 30 µM. With `Cc1nn(-c2ccccn2)c2c1C(c1ccncc1)C1=C(CC(C)(C)CC1=O)N2` (stereo not drawn), the EC50 is inactive: > 30 µM. As for `O=C(O)c1ccc2c3n(nc2c1)-c1ccc(Cl)cc1CO3`, the EC50 was inactive: > 30 µM. `O=C(CCc1nnc(CCCCc2ccccc2)o1)NCc1cccc(F)c1`: the EC50 is inactive: > 30 µM. Under `Cc1ccc2cc3c(NC(=O)C4CCCO4)nn(CC(C)C)c3nc2c1` (stereo not drawn) stands inactive: > 30 µM; under `O=C(O)COCC(=O)N1CCN(C(c2ccccc2)c2ccccc2)CC1`, inactive: > 30 µM. For the molecule `COc1cccc2c1cc1c(=O)n(CC(=O)NCCCc3ccccc3)nc(C)n12`, the EC50 was inactive: > 30 µM. `O=C(NC1CCCCC1)C(c1ccc(F)cc1)N(Cc1ccccc1)C(=O)CN1C(=O)c2ccccc2S1(=O)=O` (stereo not drawn): the EC50 was inactive: > 30 µM.

`COc1ccc(S(=O)(=O)Nc2c(C(=O)O)[nH]c3ccc(OC)cc23)c(OC)c1`: the EC50 is inactive: > 30 µM. As to `CCCCC(=O)Nc1cc(C)c(NC(=O)c2cccs2)cn1`, the EC50 is inactive: > 30 µM.

As for `COc1ccc(C)cc1NC(=O)CN(C)S(=O)(=O)c1ccc2c(c1)CC(C)N2C(C)=O` (stereo not drawn), the EC50 was inactive: > 30 µM. As to `N/C(=N\O)c1ccc(Oc2ccccc2Cl)c([N+](=O)[O-])c1`, the EC50 was inactive: > 30 µM. In the case of `O=C(NCCCN1CCCC1=O)c1c(O)nc2sccn2c1=O`, the EC50 is inactive: > 30 µM.

`COc1ccccc1N1CCN(/N=C/c2ccc(Cl)c([N+](=O)[O-])c2)CC1`: the EC50 is inactive: > 30 µM. On to `O=C(CSc1nnc(CNC(=O)c2cccc(C(F)(F)F)c2)o1)NC1CCCCC1`, for which the EC50 was inactive: > 30 µM. Regarding `CCCCc1cc(=O)oc2cc(O)cc(O)c12`, the EC50 was inactive: > 30 µM. For the molecule `O=C(CSc1nnc(COc2ccc(Cl)cc2)o1)N1c2ccccc2CCc2ccccc21`, the EC50 was inactive: > 30 µM.

For the molecule `COc1ccc(-c2cc(C(F)(F)F)nc(SCCC(=O)N3CCOCC3)n2)cc1`, the EC50 is inactive: > 30 µM. For `c1ccc(Nc2nc(-c3ccncc3)nc3ccccc23)cc1` the value was inactive: > 30 µM; for `Cc1c(C#N)c(O)[nH]c(=O)c1N=Nc1ccc(S(N)(=O)=O)cc1`, inactive: > 30 µM; for `O=C(O)c1ccccc1NCc1ccncc1`, inactive: > 30 µM. Regarding `CCCn1nc(NC(=O)C2CCCO2)c2cc3cccc(C)c3nc21` (stereo not drawn), the EC50 was inactive: > 30 µM. As for `O=c1oc2cc(O)ccc2c2c1CCCC2`, the EC50 is inactive: > 30 µM. Consider `COc1ccc2nc3c(cc2c1)c(NC(=O)c1cccs1)nn3CC(C)C`, for which the EC50 was inactive: > 30 µM. `CSc1nsc(/C=C/Nc2ccc(Cl)cc2)c1C#N`: the EC50 is inactive: > 30 µM. `COc1ccc(C2C(C#N)=C(C)NC3=C2C(=O)CC(C)(C)C3)cc1` (stereo not drawn): the EC50 was inactive: > 30 µM. For `CCOC(=O)CC(=O)CSc1ccc2nnc(-c3ccc(F)cc3)n2n1` the value was inactive: > 30 µM; for `CC(=O)N1CCC(=O)Nc2ccc([N+](=O)[O-])cc21`, inactive: > 30 µM; for `COc1ccc(-c2nn(-c3ccccc3)cc2N)cc1`, inactive: > 30 µM.

`Fc1ccccc1/C=N/Nc1ncnc2nc[nH]c12`: the EC50 is inactive: > 30 µM. Regarding `COCCOc1ccc(C(F)(F)F)cc1NC(=O)COC(=O)c1cc[n+]([O-])cc1`, the EC50 was inactive: > 30 µM. For the molecule `O=c1cc(NCc2ccccc2)nc2n1CCCS2`, the EC50 was inactive: > 30 µM.

For `O=C1/C(=C/C=C/c2ccccc2)Oc2c1ccc(O)c2CN1CCN(CCO)CC1`, the EC50 was inactive: > 30 µM. In the case of `Nc1nc(Nc2ccc(Cl)cc2)nc(NCCO)c1[N+](=O)[O-]`, the EC50 was inactive: > 30 µM.

On to `c1ccc(Nc2ccnc(Nc3ccccc3)n2)cc1`, for which the EC50 is inactive: > 30 µM. For `COc1ccc(-c2nn(CCC#N)cc2/C=N/O)cc1` the value was inactive: > 30 µM; for `C=CCNc1nc(N)c([N+](=O)[O-])c(NCCO)n1`, inactive: > 30 µM; for `O=C(Nc1ccncc1)Nc1ccncc1`, inactive: > 30 µM. Under `Nc1ncc(-c2ccccc2)c(-c2ccc(O)cc2O)n1` stands inactive: > 30 µM; under `O=C(N/N=C/c1ccc(-c2ccc(Cl)c(C(=O)O)c2)o1)c1cc2c(ccc3ccccc32)o1`, inactive: > 30 µM.
